Test results from doi:10.1101/2020.09.06.285270.
Read-outs that look alike come from different tables or passages of the source. No constants are given. Whether binding was seen depends on the method and setting. In cells and extracts the contact can be indirect. Some binding calls cover weakened binding; strength is not graded here. For part of these data: Where a sequence is shown, tags or fusion partners need not be part of it.

Protein sequences, listed by entry. Tags and fused reporters are not part of them. Lines headed by an entry give the natural chain unless they say otherwise; changes in a name come on top. Chains listed by the source or under a name are the forms on record and can include a tag or linker. Residues count along the entry.
EPHA4 wild type (murine) (Q03137, residues 20-986): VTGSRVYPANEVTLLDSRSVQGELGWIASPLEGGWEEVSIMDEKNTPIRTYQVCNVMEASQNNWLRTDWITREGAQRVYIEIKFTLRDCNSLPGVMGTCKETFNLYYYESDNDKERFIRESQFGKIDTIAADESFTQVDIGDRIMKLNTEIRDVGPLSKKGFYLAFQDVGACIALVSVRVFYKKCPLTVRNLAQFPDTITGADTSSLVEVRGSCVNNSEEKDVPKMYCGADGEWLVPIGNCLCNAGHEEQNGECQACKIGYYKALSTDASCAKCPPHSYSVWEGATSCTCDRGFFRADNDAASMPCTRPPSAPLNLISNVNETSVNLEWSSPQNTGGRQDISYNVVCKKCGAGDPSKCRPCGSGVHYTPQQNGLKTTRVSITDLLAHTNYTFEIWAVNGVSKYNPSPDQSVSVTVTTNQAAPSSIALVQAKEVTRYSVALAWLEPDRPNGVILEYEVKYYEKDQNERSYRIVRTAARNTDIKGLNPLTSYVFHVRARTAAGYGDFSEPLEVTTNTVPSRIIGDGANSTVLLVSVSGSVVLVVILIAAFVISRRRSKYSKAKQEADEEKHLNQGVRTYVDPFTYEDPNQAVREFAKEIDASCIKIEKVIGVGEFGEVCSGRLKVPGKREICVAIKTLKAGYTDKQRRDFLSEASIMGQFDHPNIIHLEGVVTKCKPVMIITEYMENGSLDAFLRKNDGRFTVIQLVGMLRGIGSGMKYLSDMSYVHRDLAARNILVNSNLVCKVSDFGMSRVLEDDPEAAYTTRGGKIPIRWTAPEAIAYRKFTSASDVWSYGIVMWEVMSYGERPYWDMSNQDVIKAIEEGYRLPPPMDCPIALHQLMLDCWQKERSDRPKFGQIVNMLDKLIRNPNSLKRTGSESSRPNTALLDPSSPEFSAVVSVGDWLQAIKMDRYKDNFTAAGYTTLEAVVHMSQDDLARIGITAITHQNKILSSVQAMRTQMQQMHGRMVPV
EPHA4 kinase dead (KD; K653A) (murine) (Q03137, form named): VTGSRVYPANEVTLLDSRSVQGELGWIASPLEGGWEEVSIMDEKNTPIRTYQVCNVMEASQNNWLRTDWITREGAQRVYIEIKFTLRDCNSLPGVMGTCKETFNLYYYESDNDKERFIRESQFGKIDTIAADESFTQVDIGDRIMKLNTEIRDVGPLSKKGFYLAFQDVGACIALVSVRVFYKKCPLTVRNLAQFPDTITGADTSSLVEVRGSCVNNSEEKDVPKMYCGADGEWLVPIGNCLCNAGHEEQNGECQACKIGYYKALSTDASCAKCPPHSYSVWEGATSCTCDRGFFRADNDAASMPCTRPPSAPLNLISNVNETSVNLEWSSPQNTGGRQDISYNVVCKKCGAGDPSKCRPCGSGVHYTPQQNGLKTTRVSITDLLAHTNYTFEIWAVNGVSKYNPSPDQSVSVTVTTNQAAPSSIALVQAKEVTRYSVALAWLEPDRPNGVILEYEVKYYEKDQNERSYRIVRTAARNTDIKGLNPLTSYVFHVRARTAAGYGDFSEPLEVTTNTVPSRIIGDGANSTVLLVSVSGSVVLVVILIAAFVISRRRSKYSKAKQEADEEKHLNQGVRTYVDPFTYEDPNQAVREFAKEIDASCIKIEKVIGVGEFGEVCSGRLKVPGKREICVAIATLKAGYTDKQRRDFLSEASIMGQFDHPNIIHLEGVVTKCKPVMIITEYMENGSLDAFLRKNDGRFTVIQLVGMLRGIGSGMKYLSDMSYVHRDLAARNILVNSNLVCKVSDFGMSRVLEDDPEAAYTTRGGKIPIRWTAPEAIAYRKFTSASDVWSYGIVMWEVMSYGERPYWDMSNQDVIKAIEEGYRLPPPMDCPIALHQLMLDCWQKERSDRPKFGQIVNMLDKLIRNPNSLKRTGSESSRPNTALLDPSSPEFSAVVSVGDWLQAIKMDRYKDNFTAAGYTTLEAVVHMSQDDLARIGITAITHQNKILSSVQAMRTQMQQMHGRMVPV
UniProt P54764, residues 20-986: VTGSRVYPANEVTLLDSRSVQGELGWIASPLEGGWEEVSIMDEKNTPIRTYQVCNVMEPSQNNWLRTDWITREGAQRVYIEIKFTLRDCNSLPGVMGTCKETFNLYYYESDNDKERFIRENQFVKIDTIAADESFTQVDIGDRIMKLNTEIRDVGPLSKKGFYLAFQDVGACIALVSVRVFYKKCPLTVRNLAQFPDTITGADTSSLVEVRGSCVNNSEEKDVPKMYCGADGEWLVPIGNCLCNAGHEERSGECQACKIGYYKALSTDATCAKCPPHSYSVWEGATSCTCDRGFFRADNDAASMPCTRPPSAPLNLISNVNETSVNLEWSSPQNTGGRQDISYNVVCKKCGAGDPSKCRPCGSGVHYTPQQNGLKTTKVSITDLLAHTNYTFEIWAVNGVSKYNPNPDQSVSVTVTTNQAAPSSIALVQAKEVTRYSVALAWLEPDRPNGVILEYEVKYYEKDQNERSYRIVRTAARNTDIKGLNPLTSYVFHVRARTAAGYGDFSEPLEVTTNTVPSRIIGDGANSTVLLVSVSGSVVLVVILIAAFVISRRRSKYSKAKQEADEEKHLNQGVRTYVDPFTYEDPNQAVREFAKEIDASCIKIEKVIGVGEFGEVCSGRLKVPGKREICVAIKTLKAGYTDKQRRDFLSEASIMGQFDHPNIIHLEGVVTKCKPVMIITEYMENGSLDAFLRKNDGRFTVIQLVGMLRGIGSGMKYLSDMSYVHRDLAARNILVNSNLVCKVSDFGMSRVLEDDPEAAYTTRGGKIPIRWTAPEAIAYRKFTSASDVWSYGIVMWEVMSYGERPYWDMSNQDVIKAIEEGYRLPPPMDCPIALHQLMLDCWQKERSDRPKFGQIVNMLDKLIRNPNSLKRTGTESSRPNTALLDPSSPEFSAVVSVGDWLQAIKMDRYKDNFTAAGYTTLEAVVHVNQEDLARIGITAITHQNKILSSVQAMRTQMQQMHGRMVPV
UniProt P29323, residues 19-1055: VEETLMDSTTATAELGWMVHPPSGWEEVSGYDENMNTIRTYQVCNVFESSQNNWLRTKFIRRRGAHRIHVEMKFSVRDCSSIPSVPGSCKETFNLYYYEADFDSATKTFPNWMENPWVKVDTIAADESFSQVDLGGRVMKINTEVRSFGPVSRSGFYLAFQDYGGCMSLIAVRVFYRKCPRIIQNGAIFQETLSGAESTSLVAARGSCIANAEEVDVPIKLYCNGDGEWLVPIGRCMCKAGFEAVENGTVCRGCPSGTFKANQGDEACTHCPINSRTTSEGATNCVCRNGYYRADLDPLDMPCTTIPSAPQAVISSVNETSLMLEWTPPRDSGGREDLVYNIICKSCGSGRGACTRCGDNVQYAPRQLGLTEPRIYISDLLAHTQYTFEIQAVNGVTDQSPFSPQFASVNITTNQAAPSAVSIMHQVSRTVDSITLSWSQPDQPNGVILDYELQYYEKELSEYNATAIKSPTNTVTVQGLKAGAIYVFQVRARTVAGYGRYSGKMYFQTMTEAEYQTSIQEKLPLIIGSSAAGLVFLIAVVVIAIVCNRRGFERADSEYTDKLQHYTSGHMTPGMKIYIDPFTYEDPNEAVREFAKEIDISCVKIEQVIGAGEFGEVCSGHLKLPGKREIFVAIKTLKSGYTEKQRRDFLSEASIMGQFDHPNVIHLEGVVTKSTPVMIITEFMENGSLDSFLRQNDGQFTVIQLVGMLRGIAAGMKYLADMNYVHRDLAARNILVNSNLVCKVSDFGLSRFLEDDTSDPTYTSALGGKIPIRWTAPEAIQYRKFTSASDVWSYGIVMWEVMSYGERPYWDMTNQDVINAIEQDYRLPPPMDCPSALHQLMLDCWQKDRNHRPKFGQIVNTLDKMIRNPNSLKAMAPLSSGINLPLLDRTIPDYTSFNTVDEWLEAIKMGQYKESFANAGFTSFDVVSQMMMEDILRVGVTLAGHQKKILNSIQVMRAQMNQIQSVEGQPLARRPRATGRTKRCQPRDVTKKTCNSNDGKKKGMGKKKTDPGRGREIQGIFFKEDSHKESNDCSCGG
UniProt P54753, residues 34-998: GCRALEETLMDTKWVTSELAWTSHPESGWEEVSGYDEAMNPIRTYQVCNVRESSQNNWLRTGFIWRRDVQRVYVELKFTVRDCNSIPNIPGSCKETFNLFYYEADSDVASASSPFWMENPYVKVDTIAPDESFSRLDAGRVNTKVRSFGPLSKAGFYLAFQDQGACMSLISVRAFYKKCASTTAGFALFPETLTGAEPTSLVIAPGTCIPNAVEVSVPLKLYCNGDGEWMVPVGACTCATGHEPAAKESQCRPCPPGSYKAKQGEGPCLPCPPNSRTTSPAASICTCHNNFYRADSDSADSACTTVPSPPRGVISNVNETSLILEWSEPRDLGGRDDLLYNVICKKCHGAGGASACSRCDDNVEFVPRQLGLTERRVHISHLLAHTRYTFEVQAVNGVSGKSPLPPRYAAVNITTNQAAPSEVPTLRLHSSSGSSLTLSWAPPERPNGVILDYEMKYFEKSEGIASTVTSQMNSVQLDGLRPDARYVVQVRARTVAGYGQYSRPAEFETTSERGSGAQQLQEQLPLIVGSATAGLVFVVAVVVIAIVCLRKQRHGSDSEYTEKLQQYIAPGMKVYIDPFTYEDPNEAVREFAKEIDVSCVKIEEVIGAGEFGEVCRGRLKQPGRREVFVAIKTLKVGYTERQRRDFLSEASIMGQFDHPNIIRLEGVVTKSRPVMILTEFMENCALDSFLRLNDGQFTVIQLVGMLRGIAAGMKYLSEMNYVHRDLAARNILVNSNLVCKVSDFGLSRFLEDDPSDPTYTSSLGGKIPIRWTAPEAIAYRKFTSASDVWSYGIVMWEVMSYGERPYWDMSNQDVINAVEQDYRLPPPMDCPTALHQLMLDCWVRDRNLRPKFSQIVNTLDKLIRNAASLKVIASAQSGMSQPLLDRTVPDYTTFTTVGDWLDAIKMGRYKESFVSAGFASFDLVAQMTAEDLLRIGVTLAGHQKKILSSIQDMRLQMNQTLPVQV
UniProt P54760, residues 16-987: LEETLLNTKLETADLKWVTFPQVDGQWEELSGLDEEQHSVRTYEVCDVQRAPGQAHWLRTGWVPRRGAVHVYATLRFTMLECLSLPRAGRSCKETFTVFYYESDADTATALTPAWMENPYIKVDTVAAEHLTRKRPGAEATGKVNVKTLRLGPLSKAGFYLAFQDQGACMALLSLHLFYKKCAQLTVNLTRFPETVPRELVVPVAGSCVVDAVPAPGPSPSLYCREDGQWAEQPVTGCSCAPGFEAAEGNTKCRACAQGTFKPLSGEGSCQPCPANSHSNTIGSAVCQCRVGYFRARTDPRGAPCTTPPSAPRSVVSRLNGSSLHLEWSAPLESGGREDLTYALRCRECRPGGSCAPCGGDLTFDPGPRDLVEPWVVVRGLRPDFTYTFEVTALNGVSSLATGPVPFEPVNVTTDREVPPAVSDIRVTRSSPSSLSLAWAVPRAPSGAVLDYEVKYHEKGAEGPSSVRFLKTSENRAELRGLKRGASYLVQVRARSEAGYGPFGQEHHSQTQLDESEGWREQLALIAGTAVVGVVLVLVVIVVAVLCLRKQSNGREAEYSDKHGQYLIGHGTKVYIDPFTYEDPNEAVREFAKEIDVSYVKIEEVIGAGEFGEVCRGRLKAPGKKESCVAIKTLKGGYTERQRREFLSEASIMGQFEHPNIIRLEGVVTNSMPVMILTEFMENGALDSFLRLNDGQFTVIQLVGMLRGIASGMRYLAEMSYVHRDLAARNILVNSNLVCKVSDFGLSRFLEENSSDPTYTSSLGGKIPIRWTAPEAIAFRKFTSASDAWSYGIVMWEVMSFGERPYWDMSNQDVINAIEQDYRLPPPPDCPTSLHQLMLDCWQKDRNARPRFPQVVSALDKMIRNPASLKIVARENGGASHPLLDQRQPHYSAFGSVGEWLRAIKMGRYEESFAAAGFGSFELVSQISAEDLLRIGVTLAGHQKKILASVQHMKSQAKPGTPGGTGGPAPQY

Tests used:
GFP-PAR-3 Y1127F (rat) [1] = target: T1, GFP-PAR-3 Y1127F (rat) (UniProt Q9Z340); assay: co-IP
T1 sequence: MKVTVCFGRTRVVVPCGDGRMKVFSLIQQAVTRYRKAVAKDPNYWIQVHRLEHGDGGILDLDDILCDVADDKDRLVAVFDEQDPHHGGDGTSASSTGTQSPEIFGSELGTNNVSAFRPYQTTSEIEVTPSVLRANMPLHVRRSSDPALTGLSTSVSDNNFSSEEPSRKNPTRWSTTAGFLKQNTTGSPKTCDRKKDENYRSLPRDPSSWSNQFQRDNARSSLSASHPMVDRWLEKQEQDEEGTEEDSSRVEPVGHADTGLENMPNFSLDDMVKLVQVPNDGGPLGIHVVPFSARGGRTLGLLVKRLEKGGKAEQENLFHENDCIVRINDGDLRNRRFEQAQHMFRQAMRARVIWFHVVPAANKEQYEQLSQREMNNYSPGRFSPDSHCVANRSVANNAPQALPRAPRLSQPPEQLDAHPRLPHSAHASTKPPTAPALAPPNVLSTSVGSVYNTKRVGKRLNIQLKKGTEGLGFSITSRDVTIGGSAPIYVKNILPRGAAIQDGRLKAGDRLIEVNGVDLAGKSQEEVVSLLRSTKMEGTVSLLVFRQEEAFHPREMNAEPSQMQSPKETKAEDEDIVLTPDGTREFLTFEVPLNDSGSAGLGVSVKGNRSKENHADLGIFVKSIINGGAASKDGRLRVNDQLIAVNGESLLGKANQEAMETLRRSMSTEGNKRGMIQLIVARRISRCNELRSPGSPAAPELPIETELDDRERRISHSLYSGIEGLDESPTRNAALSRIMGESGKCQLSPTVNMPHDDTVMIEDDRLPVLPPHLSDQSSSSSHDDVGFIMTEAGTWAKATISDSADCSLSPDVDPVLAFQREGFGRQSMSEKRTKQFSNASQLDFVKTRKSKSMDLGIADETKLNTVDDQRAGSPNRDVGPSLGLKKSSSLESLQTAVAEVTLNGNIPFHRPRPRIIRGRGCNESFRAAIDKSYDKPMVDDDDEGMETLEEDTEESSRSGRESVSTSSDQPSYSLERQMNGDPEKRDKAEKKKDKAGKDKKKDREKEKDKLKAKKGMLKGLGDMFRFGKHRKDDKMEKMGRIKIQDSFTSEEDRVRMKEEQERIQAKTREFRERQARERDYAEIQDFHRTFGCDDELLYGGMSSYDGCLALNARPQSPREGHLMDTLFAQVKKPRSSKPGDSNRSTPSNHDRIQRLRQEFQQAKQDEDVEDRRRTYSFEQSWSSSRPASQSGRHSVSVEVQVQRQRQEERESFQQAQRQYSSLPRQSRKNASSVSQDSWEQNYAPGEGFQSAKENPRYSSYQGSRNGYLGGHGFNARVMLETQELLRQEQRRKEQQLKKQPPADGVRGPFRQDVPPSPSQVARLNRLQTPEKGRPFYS

GFP-PAR-3 Y1127F (rat) [2] = target: T1, GFP-PAR-3 Y1127F (rat); assay: co-IP; remark: listed apart in the source
[3] = target: GFP-PAR-3 (wild type) (rat) (UniProt Q9Z340); assay: co-IP
GST-CSK SH2 domain = target: T2, GST-CSK SH2 domain (UniProt P41240); assay: pull-down
T2 sequence: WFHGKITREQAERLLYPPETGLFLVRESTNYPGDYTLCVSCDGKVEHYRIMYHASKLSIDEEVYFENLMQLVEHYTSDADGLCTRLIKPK

binding [3]	Substance	other results
–	C-terminal SRC kinase (CSK), endogenous (from UniProt P41240 1-450) (enzyme)	binding (GFP-PAR-3 Y1127F (rat) [1]): no binding; binding (GFP-PAR-3 Y1127F (rat) [2]): no binding
binds	EPHA4 kinase dead (KD; K653A) (murine) (from UniProt Q03137 20-986) (receptor)	–
binds	EPHA4 wild type (murine) (from UniProt Q03137 20-986) (receptor)	–
binds	EPHA4-BirA*-FLAG (from UniProt P54764 20-986) (receptor)	–
binds	EPHB2-BirA*-FLAG (from UniProt P29323) (receptor)	–
binds	EPHB3-BirA*-FLAG (from UniProt P54753 34-998) (receptor)	–
binds	EPHB4-BirA*-FLAG (from UniProt P54760 16-987) (receptor)	–
–	GFP-PAR-3 Y1127F (from UniProt Q9Z340 1-1337)	binding (GST-CSK SH2 domain): no binding
